Results deposited as PubChem BioAssay AID504793 (Drosophila RNAi Screening Center, 2011).
The deposit covers about 23,000 reagents; below is an unselected part of those with a known target gene and a result. Over the whole deposit, 62 (0.27%) are marked active. 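Calls come from follow-up tests whose scores are not deposited, so confirmed genes may have low counts here; counts are not normalised per plate.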 The raw values are shown without normalisation. Reagents against one gene are numbered here. Names joined by + are all predicted targets of the reagent.

- Test: 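Genes required for cells to halt at G2/M after double-strand DNA breaks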 (primary screen)
- Cells: Drosophila S2R+ cells
- Reagents: long dsRNA against Drosophila genes, about 0.25 µg dsRNA per well
- Timing: 4 days of dsRNA, then 4 hours of drug before read-out
- Conditions: doxorubicin 0.5 µM for 4 hours to cause double-strand breaks, in cells also given a low, harmless dose of dsRNA against nbs to sensitise the assay
- Read-out: 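Mitotic index as the number of phospho-histone H3-positive cells in each well following doxorubicin, given as raw counts without normalisation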
- Scale: mitotic cells: higher = more cells in mitosis, weaker G2 arrest
- Rule for the call: 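a call needs confirmation in secondary tests, with other dsRNAs and a check of mitotic timing without damage, not just a high primary count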
- Calls: active = confirmed in follow-up tests; inactive = not confirmed

| target gene | dsRNA no. | mitotic cells, replicate 1 | activity call |
| --- | --- | --- | --- |
| Liprin-gamma | 1 | 6 | inactive |
| CG13920 | 1 | 5 | inactive |
| mRpL41 | 1 | 4 | inactive |
| mRpL41 | 2 | 13 | inactive |
| Dtd | 1 | 5 | inactive |
| CG9114 | 1 | 13 | inactive |
| CG31870 | 1 | 10 | inactive |
| CG31870 | 2 | 10 | inactive |
| H2.0 | 1 | 11 | inactive |
| H2.0 | 2 | 10 | inactive |
| CG12155 | 1 | 16 | inactive |
| Ir60d | 1 | 5 | inactive |
| CG13545 | 1 | 6 | inactive |
| CG13545 | 2 | 2 | inactive |
| CG10205 | 1 | 5 | inactive |
| CG8860 | 1 | 3 | inactive |
| CG8860 | 2 | 6 | inactive |
| Polr3I | 1 | 3 | inactive |
| NPF | 1 | 4 | inactive |
| CG5421 | 1 | 1 | inactive |
| CG5421 | 2 | 7 | inactive |
| DEF8 | 1 | 3 | inactive |
| CG5781 | 1 | 7 | inactive |
| CG31321 | 1 | 7 | inactive |
| CG31321 | 2 | 9 | inactive |
| Argp | 1 | 8 | inactive |
| CG15395 | 1 | 6 | inactive |
| CG17681 | 1 | 2 | inactive |
| PolE4 | 1 | 12 | inactive |
| DIP-delta | 1 | 12 | inactive |
| DIP-delta | 2 | 7 | inactive |
| CG13898 | 1 | 2 | inactive |
| PolE1 | 1 | 11 | inactive |
| PolE1 | 2 | 1 | inactive |
| CG4907 | 1 | 9 | inactive |
| CG5555 | 1 | 13 | inactive |
| CG16781 | 1 | 10 | inactive |
| CG16781 | 2 | 8 | inactive |
| CG12432 (retired record) | 1 | 10 | inactive |
| CG12432 (retired record) | 2 | 8 | inactive |
| sip1 | 1 | 4 | inactive |
| sip1 | 2 | 4 | inactive |
| sip1 | 3 | 2 | inactive |
| spas | 1 | 6 | inactive |
| CR10032 | 1 | 5 | inactive |
| CR10032 | 2 | 5 | inactive |
| CG30345 | 1 | 2 | inactive |
| Sirup | 1 | 6 | inactive |
| Sirup | 2 | 6 | inactive |
| tsr | 1 | 10 | inactive |
| Mkp + CG34140 | 1 | 2 | inactive |
| Taf12 | 1 | 9 | inactive |
| Taf12 | 2 | 4 | inactive |
| Patr-1 | 1 | 13 | inactive |
| Patr-1 | 2 | 10 | inactive |
| obst-J | 1 | 5 | inactive |
| obst-J | 2 | 6 | inactive |
| CG11034 | 1 | 7 | inactive |
| CG11034 | 2 | 3 | inactive |
| otu | 1 | 18 | inactive |
| otu | 2 | 6 | inactive |
| GAPcenA | 1 | 8 | inactive |
| abd-A | 1 | 5 | inactive |
| abd-A | 2 | 6 | inactive |
| abd-A | 3 | 4 | inactive |
| CG12020 | 1 | 5 | inactive |
| CG12020 | 2 | 4 | inactive |
| CG11961 | 1 | – | inactive |
| Boh1 | 1 | 8 | inactive |
| CG6296 | 1 | 4 | inactive |
| CG9525 | 1 | 1 | inactive |
| CG7730 | 1 | 6 | inactive |
| Atg9 | 1 | 5 | inactive |
| BCL7-like | 1 | 6 | inactive |
| BCL7-like | 2 | 4 | inactive |
| Herp | 1 | 7 | inactive |
| Herp | 2 | 8 | inactive |
| Femcoat | 1 | 7 | inactive |
| Femcoat | 2 | 4 | inactive |
| CG5664 | 1 | 16 | inactive |
| boss | 1 | 4 | inactive |
| boss | 2 | 6 | inactive |
| Ugt35E2 | 1 | 3 | inactive |
| Ugt35E2 | 2 | 4 | inactive |
| dod | 1 | 7 | inactive |
| dod | 2 | 2 | inactive |
| yellow-f | 1 | 4 | inactive |
| yellow-f | 2 | 6 | inactive |
| CG11791 | 1 | 7 | inactive |
| CG11791 | 2 | 3 | inactive |
| CG5727 | 1 | – | inactive |
| CG5727 | 2 | 6 | inactive |
| CG14668 | 1 | 4 | inactive |
| Alg7 | 1 | 3 | inactive |
| Alg7 | 2 | 6 | inactive |
| Vps51 | 1 | 4 | inactive |
| CG18404 | 1 | 7 | inactive |
| B9d1 | 1 | 9 | inactive |
| shep | 1 | 3 | inactive |
| shep | 2 | 9 | inactive |
| shep | 3 | 10 | inactive |
| orb2 | 1 | 9 | inactive |
| orb2 | 2 | 11 | inactive |
| orb2 | 3 | 4 | inactive |
| orb2 | 4 | 8 | inactive |
| CG13323 | 1 | 9 | inactive |
| row | 1 | 4 | inactive |
| row | 2 | 7 | inactive |
| Sgt1 | 1 | 7 | inactive |
| Sgt1 | 2 | 11 | inactive |
| Mal-A7 | 1 | 3 | inactive |
| CG11883 | 1 | 10 | inactive |
| CG10912 | 1 | 7 | inactive |
| CG10912 | 2 | 6 | inactive |
| kud | 1 | 8 | inactive |
| JMJD6 | 1 | 10 | inactive |
| JMJD6 | 2 | 6 | inactive |
| CG11367 | 1 | 15 | inactive |
| wnd | 1 | 4 | inactive |
| wnd | 2 | 23 | inactive |
| CG13605 | 1 | 7 | inactive |
| Plekhm1 | 1 | 8 | inactive |
| kcc | 1 | 8 | inactive |
| kcc | 2 | 4 | inactive |
| CG13760 | 1 | 3 | inactive |
| CG1416 | 1 | 3 | inactive |
| Snx6 | 1 | 3 | inactive |
| Snx6 | 2 | 6 | inactive |
| CG5302 (retired record) | 1 | 2 | inactive |
| CG5302 (retired record) | 2 | 3 | inactive |
| CG5302 (retired record) | 3 | 9 | inactive |
| Ggamma30A | 1 | 7 | inactive |
| Ggamma30A | 2 | 6 | inactive |
| Rpn5 | 1 | 32 | inactive |
| Rpn5 | 2 | 46 | inactive |
| CG17195 | 1 | 13 | inactive |
| CG17195 | 2 | 11 | inactive |
| Ilp3 | 1 | 3 | inactive |
| CG6700 | 1 | 3 | inactive |
| CG6700 | 2 | 7 | inactive |

Targets above whose target name starts with K or k (3):
| target gene | dsRNA no. | mitotic cells, replicate 1 | activity call |
| --- | --- | --- | --- |
| kud | 1 | 8 | inactive |
| kcc | 1 | 8 | inactive |
| kcc | 2 | 4 | inactive |
